Laboratory results reported in the supplement of paper PMC5949888.
Most values lie at the floor of the assay. Slopes are relative: functional sequences can read slightly below zero.

tested on: Saccharomyces cerevisiae PS128 hsf1 delta, HSF1(1-493) fusion; experiment: growth estimate (transactivation domain function in HSF1 fusion, heat-shock survival) (a.u. (slope of normalised read count over time)); higher = stronger growth at 37°C, i.e. more transactivation activity; conditions: library: random library

| Substance | growth estimate |
| --- | --- |
| LCLEKWSPIRVMAYRRPEL | < -0.25 |
| NAIDRGDKRPRGMGGRDAMA | < -0.25 |
| AGTVRRVRVREPCIKVHQRQ | < -0.25 |
| PYCELEELTNV | < -0.25 |
| PFGTVEPGSRRPQRQMGGPR | < -0.25 |
| VGKHWRWGPRWDN | < -0.25 |
| SAICTLAWRW | < -0.25 |
| LLRNRALHRDVLVIDEHSRR | < -0.25 |
| MARFCNPGKHLCVAIRSV | < -0.25 |
| WVEWVCQSLGYVKRFCRDLS | -0.243 |
| CGASGKTWNSMLRVCNPPLA | < -0.25 |
| RHVGRPDGMD | < -0.25 |
| MEGYAIVPRSHKKSAI | < -0.25 |
| MYAGFTGISEESGC | < -0.25 |
| WGERQVRVCTGCSYFKLP | < -0.25 |
| RAEY | < -0.25 |
| LSGIGNS | < -0.25 |
| VRIRVDEAYLLCREYRR | < -0.25 |
| VLWVSHVLNVKAVDIENGA | < -0.25 |
| SGPSR | < -0.25 |
| GCEFNDQ | < -0.25 |
| PIYRDLGLRVSF | < -0.25 |
| RAPSACVKGPNGGQA | < -0.25 |
| SRQSKRFQANRLGFWRGRSY | < -0.25 |
| GSFVTCEIDFAMRLFQSTVG | < -0.25 |
| RNI | < -0.25 |

| Substance | growth estimate |
| --- | --- |
| PEVVVLGNVA | < -0.25 |
| SRGYEKCGPGLQPFSQAR | < -0.25 |
| GQLHCGISARSIEEL | < -0.25 |
| LASVI | < -0.25 |
| DSVTWWFVYLPLE | < -0.25 |
| GISRPRGRR | < -0.25 |
| RGPYDFSRSSAISRDETST | < -0.25 |
| RSRGINYGCSIGSNQVKDET | < -0.25 |
| TTLEGSAAPCV | < -0.25 |
| AQSGVVQTGTVP | < -0.25 |
| SLGLGPYYPKVVRPTCAGTN | < -0.25 |
| ASFGSK | < -0.25 |
| KRLLDYPTRR | < -0.25 |
| DRPRGQKQVPG | < -0.25 |
| MRHSYRLGGLSIVHSSMSVS | < -0.25 |
| TILWHPSTWHDRRAAVIASI | < -0.25 |
| AVKRIRDESVGRLL | < -0.25 |
| LKCSDVWSHPAKTTSWTCAL | < -0.25 |
| LLKTFVTE | < -0.25 |
| NLTMR | < -0.25 |
| YRGPASQDPASQSSR | < -0.25 |
| VTFPSSIIGRAGHSPLGVSV | < -0.25 |
| GPFIIRAAPGFFATISSAMS | < -0.25 |
| DREHD | < -0.25 |
| MSSTYDSTK | < -0.25 |
| SISGLPDRR | < -0.25 |

Some of the entries so far, as tab-separated lines:
Substance	growth estimate
CGASGKTWNSMLRVCNPPLA	< -0.25
RHVGRPDGMD	< -0.25
MEGYAIVPRSHKKSAI	< -0.25
MYAGFTGISEESGC	< -0.25
WGERQVRVCTGCSYFKLP	< -0.25
RAEY	< -0.25
LSGIGNS	< -0.25
VRIRVDEAYLLCREYRR	< -0.25
VLWVSHVLNVKAVDIENGA	< -0.25
SGPSR	< -0.25
GCEFNDQ	< -0.25
PIYRDLGLRVSF	< -0.25
RAPSACVKGPNGGQA	< -0.25
GSFVTCEIDFAMRLFQSTVG	< -0.25
RNI	< -0.25
PEVVVLGNVA	< -0.25
SRGYEKCGPGLQPFSQAR	< -0.25
GQLHCGISARSIEEL	< -0.25
LASVI	< -0.25
DSVTWWFVYLPLE	< -0.25
GISRPRGRR	< -0.25
RGPYDFSRSSAISRDETST	< -0.25
RSRGINYGCSIGSNQVKDET	< -0.25
TTLEGSAAPCV	< -0.25
AQSGVVQTGTVP	< -0.25
SLGLGPYYPKVVRPTCAGTN	< -0.25
ASFGSK	< -0.25
DRPRGQKQVPG	< -0.25
MRHSYRLGGLSIVHSSMSVS	< -0.25
TILWHPSTWHDRRAAVIASI	< -0.25
AVKRIRDESVGRLL	< -0.25
LKCSDVWSHPAKTTSWTCAL	< -0.25
LLKTFVTE	< -0.25
NLTMR	< -0.25
YRGPASQDPASQSSR	< -0.25
VTFPSSIIGRAGHSPLGVSV	< -0.25
GPFIIRAAPGFFATISSAMS	< -0.25
DREHD	< -0.25
MSSTYDSTK	< -0.25

Further results.

| Substance | growth estimate |
| --- | --- |
| IFE | < -0.25 |
| DVMHCSETKTGGWSAVRKHR | -0.246 |
| GVERLPVGSVGFSYNYNVLY | < -0.25 |
| LGRRESAASCGRIFAN | -0.241 |
| FRFVSRVD | < -0.25 |
| DVPGMCLS | < -0.25 |
| LIMGVG | < -0.25 |
| GGMREGGDLAKRYGRCISTR | -0.243 |
| NPGVYTAVGRRTGRTVVLYF | < -0.25 |
| ASGPERGLRLLWVFYASVVR | < -0.25 |
| GSGLAFRSGNDEHEAVRL | -0.241 |
| SGSPLILTVDSMSEANCLVL | < -0.25 |
| VSTVPGARWTVSARSGSCTT | < -0.25 |
| PIARASSNEDAHPRQMTHRP | < -0.25 |
| PQYSLQQQS | < -0.25 |
| KLRLLGSVEWEFVADRLIAS | < -0.25 |
| TIIPTSDRGLGAYNRVMPTT | < -0.25 |
| GGDVGFSTRKHKAKRLVGRA | < -0.25 |
| YLVTVDRYKQKRYVRYPTVE | < -0.25 |
| RTFCIGGID | < -0.25 |
| RLQIKMNILSRGGNWLHWKG | < -0.25 |
| QATALDGSSGLSGEDSTFGL | < -0.25 |
| RRGLLQSEV | < -0.25 |
| PSSNQEGFVFTHRRMLHTGP | < -0.25 |
| AMLFEFAGVGYLEAQIGMAP | < -0.25 |
| LRCKLG | < -0.25 |

| Substance | growth estimate |
| --- | --- |
| SIRVGCVRTTRDLSNSSPSF | < -0.25 |
| SSPVPHLPITDSAWSLIFSA | < -0.25 |
| AYACEKVTSGIDDELSNTIG | < -0.25 |
| LKLMIVVDGI | < -0.25 |
| IILFSHSRQPNDVQQLPLSD | < -0.25 |
| QRQWYARRC | < -0.25 |
| YTSGGPFSERVSLPLSLSAV | < -0.25 |
| IATKTKFGACSATIGLESMR | < -0.25 |
| EVLTARALSYSRWLSRY | < -0.25 |
| CQGS | < -0.25 |
| IGRTTQGDRLGWLMQAWLSL | < -0.25 |
| RTCAFTALKRWHHCNLG | < -0.25 |
| IVADKEA | < -0.25 |
| LRLAGSFRCNITYMSPPCA | < -0.25 |
| RVDCQQSPTRPNAQGPTKGY | < -0.25 |
| SEDQAPSNISLVCGESRRTG | < -0.25 |
| AGVIGSPDRQCFYRLEPLHR | < -0.25 |
| EKRSSLVSLMGDPQPLASRP | < -0.25 |
| TSSRAIKKIIRPWDNIPHRG | < -0.25 |
| GAGLLIREICLAISHD | < -0.25 |
| FPWLPAWMPIGRHRSP | < -0.25 |
| IDKGGGTW | < -0.25 |
| SGN | < -0.25 |
| NGCGKWCSQDATDSAGERSA | < -0.25 |
| ALSDQVGTSSLCRGCVALIP | < -0.25 |
| VKHADHPRVRKPEAIWVYAP | -0.169 |

| Substance | growth estimate |
| --- | --- |
| DLHAGRTVGDVLCNAMPSFD | < -0.25 |
| PGEVQSRMS | < -0.25 |
| RIFKFAFRVGAR | < -0.25 |
| SRRLPFRGTRNCYRRRLCNY | < -0.25 |
| GPHSSRHALR | < -0.25 |
| WSDSRALGVGRVGNEILTQG | -0.246 |
| CVHSGRSL | < -0.25 |
| DDFGIRRGVRSPRHLSIFYP | < -0.25 |
| SMFDRLL | < -0.25 |
| GFFGMSLPGCCGEQSGIAEH | < -0.25 |
| NMGTQRYRIVIK | < -0.25 |
| ALPMIPNTKFVVERG | < -0.25 |
| SRLEVLQ | < -0.253 |
| GDVRFIRRTRGPPRL | < -0.25 |
| PGFCDPDESDTGNEMLDNLA | < -0.25 |
| SCNGGTHVGWSQYLKSRSYD | < -0.25 |
| FCGLPVTLMGPIHAPREWEA | < -0.25 |
| THRECCLSATRHES | < -0.25 |
| EMRVGCRPRAESCEGSLFEG | < -0.25 |
| WAGLPFRVRLQKQGVPDVSR | -0.243 |
| QLNSLSSECHYIELAGPSMQ | < -0.25 |
| NIFHAAGGTQPKGYPWVRGG | < -0.25 |
| LVRLRHIRSRRSRGSSLLPH | < -0.25 |
| GNGMVDEGLCGGIRRWKSPV | < -0.25 |
| CCSRHLGVSEQGRVLGPVPR | < -0.25 |
| SQQFRTMPTIRVLDQLK | < -0.25 |

| Substance | growth estimate |
| --- | --- |
| GNSFLGFVRARP | < -0.25 |
| RQQDRVYGLRWGLAGSKWVG | -0.246 |
| RSRPIGHSGNSQGVVSFRIK | -0.229 |
| IIMPRFHKWAVNVTCLIPGI | < -0.25 |
| GLSQRGAGEVRICQRISHMV | < -0.25 |
| GNC | < -0.25 |
| GVHVACAQLQSPFCDSSRHH | < -0.25 |
| VRPGNSHPANGDEGRAIEAT | < -0.25 |
| QAVSDSQRRVAIPVSVFPKP | < -0.25 |
| YPGNGYVPVWYRAPRANKTL | < -0.25 |
| SRENHG | < -0.25 |
| HFKMAAMGEFHMVGVPKIPV | < -0.25 |
| MGRTSSIH | < -0.25 |
| REGRASRRYAQLNY | < -0.25 |
| YPGSLLRGAHTGSPRAPVHE | < -0.25 |
| CEDIAKGRPREHEGPFYMRN | < -0.25 |
| AAGLVQIAPGYPA | < -0.25 |
| WYPGIDDSSPPLDRARQTPP | < -0.25 |
| NQYSSVISSLYDRA | < -0.25 |
| HDSALHSYRDEDLTGGRSLG | < -0.25 |
| RSIVRMLGKTMP | < -0.25 |
| FRLARPHLLMDCWGRKRIRF | < -0.25 |
| LEQRCWNSQME | < -0.25 |
| SEDAPGLGAAVRDGHVLAEG | < -0.25 |
| QPCSHLP | < -0.25 |

Reprinted at random: three records from the list

| Substance | growth estimate |
| --- | --- |
| RSIVRMLGKTMP | < -0.25 |
| YPGNGYVPVWYRAPRANKTL | < -0.25 |
| HFKMAAMGEFHMVGVPKIPV | < -0.25 |
